# Results from US20030027870A1, “Fullerene derivatives that modulate nitric oxide synthase and clamodulin activity” (priority 2001, published 2003).
# Not every detail of the peptide structures is certain; ends, links or a residue may be inferred. For at least one compound, name, drawing or mass did not settle the structure.
# Target: T1, nNOS
# T1 construct: Bovine brain calmodulin was prepared; endogenous in cells; host or cells: rat GH3 pituitary cells (nNOS); bovine brain (calmodulin)
# Assay: CaM antagonists inhibiting citrulline formation by nNOS at 6 nM CaM
# Assay type: biochemical, rat
# Conditions: 30-min incubation
row,Structure (SMILES),IC50
1,CC[C@H](C)[C@H](NC(=O)[C@H](C)NC(=O)CNC(=O)[C@H](CCCCN)NC(=O)[C@H](CC(C)C)NC(=O)[C@H](CCCCN)NC(=O)[C@H](CCCNC(=N)N)NC(=O)[C@H](CCCNC(=N)N)NC(=O)[C@H](C)NC(=O)[C@H](CC(N)=O)NC(=O)[C@H](Cc1ccccc1)NC(=O)[C@H](CCCCN)NC(=O)[C@H](CCCCN)NC(=O)[C@@H](N)CC(C)C)C(=O)N[C@@H](CC(C)C)C(=O)N[C@H](C(=O)N[C@H](C(=O)N[C@@H](CCSC)C(=O)N[C@@H](CC(C)C)C(=O)N[C@@H](C)C(=O)O)[C@@H](C)O)[C@@H](C)O [CBP],3 nM
2,CC[C@H](C)[C@H](NC(=O)[C@H](C)NC(=O)[C@H](CCCNC(=N)N)NC(=O)[C@@H](NC(=O)[C@H](C)NC(=O)[C@H](Cc1c[nH]cn1)NC(=O)CNC(=O)[C@@H](NC(=O)[C@H](CCCCN)NC(=O)[C@H](CCC(N)=O)NC(=O)[C@H](Cc1c[nH]c2ccccc12)NC(=O)[C@H](CCCCN)NC(=O)[C@H](CCCNC(=N)N)NC(=O)[C@H](CCCNC(=N)N)NC(C)=O)[C@@H](C)O)C(C)C)C(=O)NCC(=O)N[C@@H](CCCNC(=N)N)C(=O)N[C@@H](CC(C)C)C(N)=O [CIP],23 nM
